Holding throughout (test): log2 fold change, soluble protein after heating vs DMSO (PISA); higher = thermal stabilisation; K562 lysate, 10 uM; active = over 0.2 and 3.5 SD of the protein, either way, in both replicates (recomputed)
Compound in test [1]: NCC(=O)Nc1ccc(-n2nc(C(F)(F)F)cc2-c2ccc3c(ccc4ccccc43)c2)cc1
An outline of the steps:
(§1)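 Pellets of K562 cells were dounce-homogenised in PBS pH 7.4 with 1 mM MgCl2, and the crude extract was held at 1 mg/mL protein for a 30 min treatment with 10 μM compound. Aliquots were heated for 3 min over 48°C-58°C and pooled before NP-40 was added to 0.5% at 4°C. The supernatant from 21,000xg for 90 min was quantified by TMTpro 16plex LC-MS/MS with channel sums equalised. Values are reported from duplicates as log-two fold change in thermal stability relative to solvent controls.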

Protein sequences, listed by entry. Tags and fused reporters are not part of them. Lines headed by an entry give the natural chain unless they say otherwise; changes in a name come on top.
UniProt Q14728: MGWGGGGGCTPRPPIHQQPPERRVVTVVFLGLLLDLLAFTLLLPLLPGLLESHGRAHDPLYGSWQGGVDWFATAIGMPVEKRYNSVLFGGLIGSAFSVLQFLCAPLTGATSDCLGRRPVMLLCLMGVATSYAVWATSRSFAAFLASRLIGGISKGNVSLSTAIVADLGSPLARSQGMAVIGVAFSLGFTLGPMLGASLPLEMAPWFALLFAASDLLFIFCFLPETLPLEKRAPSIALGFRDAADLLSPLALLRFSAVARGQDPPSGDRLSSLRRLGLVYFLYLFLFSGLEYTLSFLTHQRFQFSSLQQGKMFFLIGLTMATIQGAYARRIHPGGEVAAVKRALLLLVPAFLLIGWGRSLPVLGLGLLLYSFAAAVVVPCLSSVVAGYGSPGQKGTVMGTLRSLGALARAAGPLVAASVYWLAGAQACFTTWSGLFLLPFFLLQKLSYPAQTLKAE
UniProt P48163: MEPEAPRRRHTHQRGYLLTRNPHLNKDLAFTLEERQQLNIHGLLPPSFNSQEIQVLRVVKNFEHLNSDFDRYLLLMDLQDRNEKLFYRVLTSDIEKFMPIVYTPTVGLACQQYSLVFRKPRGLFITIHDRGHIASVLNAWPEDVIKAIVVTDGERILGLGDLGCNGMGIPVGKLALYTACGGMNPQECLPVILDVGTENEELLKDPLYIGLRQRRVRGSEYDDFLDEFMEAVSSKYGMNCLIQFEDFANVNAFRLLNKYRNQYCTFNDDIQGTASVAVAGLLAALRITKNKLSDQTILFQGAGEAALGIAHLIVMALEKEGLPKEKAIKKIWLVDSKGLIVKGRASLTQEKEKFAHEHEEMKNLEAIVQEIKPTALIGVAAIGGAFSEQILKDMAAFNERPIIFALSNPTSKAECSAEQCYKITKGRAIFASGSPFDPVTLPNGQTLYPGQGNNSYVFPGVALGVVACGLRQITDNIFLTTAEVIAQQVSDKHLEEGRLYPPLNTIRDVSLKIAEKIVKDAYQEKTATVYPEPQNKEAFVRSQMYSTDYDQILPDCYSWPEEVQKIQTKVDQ
UniProt Q9Y316: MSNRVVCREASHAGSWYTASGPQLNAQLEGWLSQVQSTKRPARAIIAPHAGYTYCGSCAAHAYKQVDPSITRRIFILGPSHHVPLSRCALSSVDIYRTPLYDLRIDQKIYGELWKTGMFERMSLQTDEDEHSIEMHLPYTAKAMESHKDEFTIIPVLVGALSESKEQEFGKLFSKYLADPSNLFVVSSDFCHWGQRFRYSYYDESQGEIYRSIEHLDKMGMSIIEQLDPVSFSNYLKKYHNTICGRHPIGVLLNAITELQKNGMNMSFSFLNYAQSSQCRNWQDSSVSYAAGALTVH
UniProt Q16798: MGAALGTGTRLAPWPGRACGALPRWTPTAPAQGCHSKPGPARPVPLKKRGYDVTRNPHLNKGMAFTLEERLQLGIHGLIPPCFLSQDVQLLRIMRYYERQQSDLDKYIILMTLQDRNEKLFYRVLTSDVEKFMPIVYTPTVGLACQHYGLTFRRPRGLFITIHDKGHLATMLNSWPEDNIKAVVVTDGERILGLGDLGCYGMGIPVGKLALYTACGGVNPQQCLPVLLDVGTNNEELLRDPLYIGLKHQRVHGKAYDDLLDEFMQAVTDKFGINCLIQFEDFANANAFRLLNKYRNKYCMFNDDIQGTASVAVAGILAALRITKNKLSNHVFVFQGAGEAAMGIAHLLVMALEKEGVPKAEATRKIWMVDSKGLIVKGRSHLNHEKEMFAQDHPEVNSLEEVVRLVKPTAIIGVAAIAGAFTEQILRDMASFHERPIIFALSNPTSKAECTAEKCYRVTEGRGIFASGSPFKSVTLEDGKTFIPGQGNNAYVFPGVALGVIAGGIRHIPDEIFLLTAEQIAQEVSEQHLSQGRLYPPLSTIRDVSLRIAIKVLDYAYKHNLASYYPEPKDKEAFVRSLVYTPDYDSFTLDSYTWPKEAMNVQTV
UniProt Q86W50: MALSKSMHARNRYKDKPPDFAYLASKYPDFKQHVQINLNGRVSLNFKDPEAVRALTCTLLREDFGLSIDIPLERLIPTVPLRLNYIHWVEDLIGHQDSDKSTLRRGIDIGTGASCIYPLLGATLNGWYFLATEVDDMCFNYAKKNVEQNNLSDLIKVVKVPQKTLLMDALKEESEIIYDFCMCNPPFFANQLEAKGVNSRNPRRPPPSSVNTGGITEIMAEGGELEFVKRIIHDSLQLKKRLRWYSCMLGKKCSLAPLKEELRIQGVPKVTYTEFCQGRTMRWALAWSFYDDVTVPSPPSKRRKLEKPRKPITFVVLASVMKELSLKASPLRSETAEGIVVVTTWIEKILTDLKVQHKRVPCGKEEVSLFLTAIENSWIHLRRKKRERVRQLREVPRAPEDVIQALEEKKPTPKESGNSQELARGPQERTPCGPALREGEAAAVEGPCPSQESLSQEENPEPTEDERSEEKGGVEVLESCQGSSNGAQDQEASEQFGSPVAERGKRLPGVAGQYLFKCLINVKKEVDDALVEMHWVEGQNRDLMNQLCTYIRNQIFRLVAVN
UniProt O14770: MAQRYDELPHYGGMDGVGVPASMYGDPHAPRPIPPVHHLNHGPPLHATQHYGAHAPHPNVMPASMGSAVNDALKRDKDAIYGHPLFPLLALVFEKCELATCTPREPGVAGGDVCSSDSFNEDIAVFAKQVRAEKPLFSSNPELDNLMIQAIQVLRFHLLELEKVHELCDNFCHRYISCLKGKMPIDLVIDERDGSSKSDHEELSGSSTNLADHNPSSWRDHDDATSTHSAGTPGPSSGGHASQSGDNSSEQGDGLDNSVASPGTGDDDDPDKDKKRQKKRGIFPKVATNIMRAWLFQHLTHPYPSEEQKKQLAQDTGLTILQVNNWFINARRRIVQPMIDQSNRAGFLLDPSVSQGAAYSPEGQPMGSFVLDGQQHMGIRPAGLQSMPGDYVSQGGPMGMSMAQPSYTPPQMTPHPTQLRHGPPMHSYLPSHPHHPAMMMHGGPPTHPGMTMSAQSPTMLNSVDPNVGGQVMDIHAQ
UniProt Q9ULC4: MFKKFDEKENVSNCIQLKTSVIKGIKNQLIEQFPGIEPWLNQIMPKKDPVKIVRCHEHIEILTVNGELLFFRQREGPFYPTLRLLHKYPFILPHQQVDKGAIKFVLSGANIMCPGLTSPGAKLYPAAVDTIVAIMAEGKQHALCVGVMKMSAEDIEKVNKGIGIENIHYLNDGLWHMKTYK
UniProt Q9ULK4: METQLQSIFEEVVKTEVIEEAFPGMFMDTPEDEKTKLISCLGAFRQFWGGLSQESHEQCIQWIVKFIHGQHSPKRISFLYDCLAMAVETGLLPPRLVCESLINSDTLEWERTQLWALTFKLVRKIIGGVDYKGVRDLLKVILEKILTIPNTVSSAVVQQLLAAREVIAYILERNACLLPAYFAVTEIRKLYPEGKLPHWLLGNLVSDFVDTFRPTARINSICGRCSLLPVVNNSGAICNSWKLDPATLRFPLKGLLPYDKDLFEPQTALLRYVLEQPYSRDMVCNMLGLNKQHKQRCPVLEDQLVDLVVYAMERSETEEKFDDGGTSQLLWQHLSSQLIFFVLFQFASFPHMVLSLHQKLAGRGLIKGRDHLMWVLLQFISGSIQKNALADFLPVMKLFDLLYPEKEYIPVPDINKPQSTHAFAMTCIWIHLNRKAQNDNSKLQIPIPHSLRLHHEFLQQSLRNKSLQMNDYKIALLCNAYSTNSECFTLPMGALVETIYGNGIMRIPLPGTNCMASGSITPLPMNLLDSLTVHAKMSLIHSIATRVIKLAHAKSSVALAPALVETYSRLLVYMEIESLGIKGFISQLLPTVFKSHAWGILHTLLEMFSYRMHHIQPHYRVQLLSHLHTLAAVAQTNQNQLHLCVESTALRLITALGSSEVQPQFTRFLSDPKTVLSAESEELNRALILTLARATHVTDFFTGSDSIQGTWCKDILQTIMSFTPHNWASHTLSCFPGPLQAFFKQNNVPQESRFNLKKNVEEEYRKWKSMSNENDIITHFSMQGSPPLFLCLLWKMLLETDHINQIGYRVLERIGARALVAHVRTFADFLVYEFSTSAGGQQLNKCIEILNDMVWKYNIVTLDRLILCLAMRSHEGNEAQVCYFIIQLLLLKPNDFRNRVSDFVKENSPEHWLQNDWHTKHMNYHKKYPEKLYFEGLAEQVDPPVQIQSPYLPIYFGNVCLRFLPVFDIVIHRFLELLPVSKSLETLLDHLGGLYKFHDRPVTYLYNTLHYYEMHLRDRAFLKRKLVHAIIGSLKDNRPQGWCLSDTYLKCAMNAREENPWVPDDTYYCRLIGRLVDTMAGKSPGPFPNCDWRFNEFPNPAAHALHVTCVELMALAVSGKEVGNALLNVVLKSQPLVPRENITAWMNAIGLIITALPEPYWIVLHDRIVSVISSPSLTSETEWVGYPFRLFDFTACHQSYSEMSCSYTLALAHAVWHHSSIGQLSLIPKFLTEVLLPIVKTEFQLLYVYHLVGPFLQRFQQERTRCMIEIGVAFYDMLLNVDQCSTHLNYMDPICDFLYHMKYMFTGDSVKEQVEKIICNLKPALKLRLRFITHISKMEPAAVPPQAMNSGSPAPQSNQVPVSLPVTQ
UniProt O95140: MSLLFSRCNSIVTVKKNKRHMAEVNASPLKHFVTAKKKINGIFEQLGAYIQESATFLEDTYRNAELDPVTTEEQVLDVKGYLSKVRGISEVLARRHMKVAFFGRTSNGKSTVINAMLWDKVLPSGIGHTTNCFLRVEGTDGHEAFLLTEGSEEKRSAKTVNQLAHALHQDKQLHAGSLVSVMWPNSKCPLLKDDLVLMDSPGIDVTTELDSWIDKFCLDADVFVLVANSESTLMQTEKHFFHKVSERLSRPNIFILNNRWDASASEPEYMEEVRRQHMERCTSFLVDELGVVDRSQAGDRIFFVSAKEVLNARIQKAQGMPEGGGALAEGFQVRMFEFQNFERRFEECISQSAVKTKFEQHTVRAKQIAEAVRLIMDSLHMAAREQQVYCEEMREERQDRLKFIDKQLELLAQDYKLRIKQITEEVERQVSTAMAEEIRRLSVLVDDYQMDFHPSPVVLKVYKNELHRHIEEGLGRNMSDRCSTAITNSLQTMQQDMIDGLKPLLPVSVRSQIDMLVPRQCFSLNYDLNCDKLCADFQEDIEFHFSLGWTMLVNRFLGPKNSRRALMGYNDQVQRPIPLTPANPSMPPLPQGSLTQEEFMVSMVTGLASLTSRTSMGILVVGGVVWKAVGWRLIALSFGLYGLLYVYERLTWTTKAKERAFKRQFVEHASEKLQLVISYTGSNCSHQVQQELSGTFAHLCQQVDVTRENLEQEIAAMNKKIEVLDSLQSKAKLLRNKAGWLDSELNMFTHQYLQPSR
UniProt Q07820, whole entry, looked up: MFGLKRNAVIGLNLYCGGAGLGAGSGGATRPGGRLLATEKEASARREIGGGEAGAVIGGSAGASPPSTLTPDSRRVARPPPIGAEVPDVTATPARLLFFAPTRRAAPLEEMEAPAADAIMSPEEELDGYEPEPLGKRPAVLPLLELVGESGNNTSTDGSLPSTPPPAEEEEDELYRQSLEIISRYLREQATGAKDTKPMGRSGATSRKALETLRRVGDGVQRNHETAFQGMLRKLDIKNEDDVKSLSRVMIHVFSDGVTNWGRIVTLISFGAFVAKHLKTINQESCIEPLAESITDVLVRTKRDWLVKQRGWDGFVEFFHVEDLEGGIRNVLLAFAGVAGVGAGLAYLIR
UniProt Q14814: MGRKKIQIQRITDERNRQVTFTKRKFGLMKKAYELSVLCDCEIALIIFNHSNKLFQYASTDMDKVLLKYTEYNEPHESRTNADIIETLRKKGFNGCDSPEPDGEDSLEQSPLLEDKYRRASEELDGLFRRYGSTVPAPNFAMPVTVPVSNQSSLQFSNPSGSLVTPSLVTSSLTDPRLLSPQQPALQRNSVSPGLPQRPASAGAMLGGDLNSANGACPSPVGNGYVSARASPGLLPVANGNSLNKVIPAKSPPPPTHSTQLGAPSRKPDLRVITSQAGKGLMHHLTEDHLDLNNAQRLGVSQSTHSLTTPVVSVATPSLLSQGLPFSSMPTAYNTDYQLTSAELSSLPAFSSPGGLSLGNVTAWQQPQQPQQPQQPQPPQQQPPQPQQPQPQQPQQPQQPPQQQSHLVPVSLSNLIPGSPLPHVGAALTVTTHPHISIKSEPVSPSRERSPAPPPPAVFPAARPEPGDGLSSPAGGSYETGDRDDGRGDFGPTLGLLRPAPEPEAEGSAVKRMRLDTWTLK
UniProt Q9HCE5: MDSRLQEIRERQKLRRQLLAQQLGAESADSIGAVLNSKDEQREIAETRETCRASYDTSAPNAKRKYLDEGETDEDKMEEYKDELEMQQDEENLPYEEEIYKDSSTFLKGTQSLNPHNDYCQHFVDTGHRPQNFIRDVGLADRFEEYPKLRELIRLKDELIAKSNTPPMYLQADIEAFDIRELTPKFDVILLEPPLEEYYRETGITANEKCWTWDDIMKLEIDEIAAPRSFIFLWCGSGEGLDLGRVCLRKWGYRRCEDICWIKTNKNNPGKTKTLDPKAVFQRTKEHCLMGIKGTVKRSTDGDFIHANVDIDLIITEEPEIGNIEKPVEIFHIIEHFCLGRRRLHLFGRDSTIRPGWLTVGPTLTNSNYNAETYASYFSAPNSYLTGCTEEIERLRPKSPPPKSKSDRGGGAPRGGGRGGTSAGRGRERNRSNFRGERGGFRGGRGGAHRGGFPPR

Compound in another test: O=C(CCCCCCC(=O)Nc1ccccc1)NO [vorinostat]
The method in brief:
as §1

Compound in the next test: O=C(O)c1ccc2c(c1)nc(Nc1cccc(Cl)c1)c1ccncc12 [silmitasertib]
The method in brief: as §1

Compound in test [2]: O=C1NC(=O)C(c2cnc3ccccn23)=C1c1cn2c3c(cc(F)cc13)CN(C(=O)N1CCCCC1)CC2
An outline of the steps:
as §1

Compound in another test: c1cn2cc(-c3ccc4cn[nH]c4c3)nc(Nc3ccc(N4CCOCC4)cc3)c2n1 [entospletinib]
The method in brief: as §1

The list shows a part of the results.

For MFSD10 (UniProt Q14728), the log2 fold change was inactive: 0.013 in test [1]; inactive: 0.02 in the test with vorinostat; inactive: 0.049 in the test with silmitasertib; inactive: 0.017 in test [2]; inactive: -0.095 with entospletinib.

Turning to MELTF (UniProt P08582), the log2 fold change was inactive: 0.025 in test [1]; inactive: 0.033 in the test with vorinostat; inactive: -0.079 with silmitasertib; inactive: -0.33 in test [2]; inactive: -0.013 with entospletinib.

For the target ME1 (UniProt P48163), the log2 fold change is inactive: -0.06 in test [1]; inactive: 0.142 in the test with vorinostat; inactive: -0.013 in the test with silmitasertib; inactive: -0.04 in test [2]; inactive: -0.006 with entospletinib.

Regarding MCAT (UniProt Q8IVS2), the log2 fold change was inactive: -0.05 in test [1]; inactive: 0.063 in the test with vorinostat; inactive: -0.053 in the test with silmitasertib; inactive: 0.002 in test [2]; inactive: -0.021 with entospletinib.

MCEE (UniProt Q96PE7): the log2 fold change was inactive: -0.045 in test [1]; inactive: 0.093 with vorinostat; inactive: 0.035 in the test with silmitasertib; inactive: 0.005 in test [2]; inactive: -0.12 with entospletinib.

With MEMO1 (UniProt Q9Y316), the log2 fold change was inactive: -0.015 in test [1]; inactive: 0.043 with vorinostat; inactive: 0 in the test with silmitasertib; inactive: 0.015 in test [2]; inactive: -0.016 with entospletinib.

Take ME3 (UniProt Q16798): the log2 fold change in test [1] is inactive: -0.037; in the test with vorinostat it was inactive: 0.034; with silmitasertib it was inactive: -0.03; in test [2] it was inactive: -0.041; with entospletinib, inactive: -0.01.

For the target MFAP1 (UniProt P55081), the log2 fold change in test [1] is inactive: -0.008; with vorinostat, inactive: 0.173; with silmitasertib, inactive: -0.043; in test [2] it was inactive: 0.024; with entospletinib, inactive: 0.024.

For the target METTL16 (UniProt Q86W50), the log2 fold change was inactive: -0.024 in test [1]; inactive: -0.136 in the test with vorinostat; inactive: 0.006 with silmitasertib; inactive: -0.018 in test [2]; inactive: 0.023 in the test with entospletinib.

On to MEIS2 (UniProt O14770), for which the log2 fold change in test [1] is inactive: 0.021; in the test with vorinostat, inactive: 0.001; in the test with silmitasertib, inactive: -0.127; in test [2] it was inactive: -0.063; with entospletinib, inactive: 0.018.

Regarding MCTS1 isoform 3 (UniProt Q9ULC4), the log2 fold change in test [1] is inactive: 0.004; with vorinostat it was inactive: -0.002; with silmitasertib, inactive: -0.004; in test [2] it was inactive: -0.001; in the test with entospletinib it was inactive: 0.038.

On to MED23 (UniProt Q9ULK4), for which the log2 fold change in test [1] is inactive: 0.017; in the test with vorinostat, inactive: -0.265; with silmitasertib, inactive: 0.069; in test [2] it was inactive: -0.001; with entospletinib, inactive: 0.014.

Take MFSD1 isoform 6 (UniProt Q9H3U5): the log2 fold change in test [1] is inactive: -0.08; with vorinostat it was inactive: -0.08; with silmitasertib it was inactive: 0.098; in test [2] it was inactive: -0.002; in the test with entospletinib, inactive: 0.026.

Regarding MFN2 (UniProt O95140), the log2 fold change in test [1] is inactive: -0.01; with vorinostat, inactive: -0.221; with silmitasertib, inactive: 0.013; in test [2], inactive: 0; with entospletinib, inactive: 0.004.

As for MED30 (UniProt Q96HR3), the log2 fold change is inactive: -0.057 in test [1]; inactive: -0.076 with vorinostat; inactive: -0.001 in the test with silmitasertib; inactive: -0.014 in test [2]; inactive: 0.001 in the test with entospletinib.

Turning to MED17 (UniProt Q9NVC6), the log2 fold change is inactive: -0.051 in test [1]; active: -0.392 with vorinostat; inactive: -0.008 with silmitasertib; inactive: -0.006 in test [2]; inactive: 0.083 with entospletinib.

With MCL1 (UniProt Q07820), the log2 fold change was inactive: -0.028 in test [1]; inactive: -0.02 with vorinostat; inactive: 0.174 in the test with silmitasertib; inactive: -0.008 in test [2]; inactive: -0.026 with entospletinib.

As for MEAF6 isoform 3 (UniProt Q9HAF1), the log2 fold change in test [1] is inactive: 0.01; with vorinostat, inactive: 0.083; in the test with silmitasertib it was inactive: -0.027; in test [2], inactive: -0.004; with entospletinib, inactive: 0.

As for MDH2 (UniProt P40926), the log2 fold change is inactive: -0.002 in test [1]; inactive: 0.099 with vorinostat; inactive: 0.015 with silmitasertib; inactive: -0.016 in test [2]; inactive: 0.028 with entospletinib.

As to MED15 (UniProt Q96RN5), the log2 fold change in test [1] was inactive: -0.024; with vorinostat, inactive: 0.052; in the test with silmitasertib, inactive: -0.031; in test [2], inactive: 0.001; with entospletinib, inactive: 0.018.

On to METTL3 (UniProt Q86U44), for which the log2 fold change in test [1] was inactive: 0.021; in the test with vorinostat it was inactive: 0.031; with silmitasertib it was inactive: -0.015; in test [2], inactive: -0.016; in the test with entospletinib, inactive: 0.008.

Turning to MEF2D (UniProt Q14814), the log2 fold change in test [1] is inactive: -0.032; in the test with vorinostat it was inactive: 0.029; with silmitasertib it was inactive: -0.018; in test [2], inactive: -0.031; in the test with entospletinib, inactive: 0.033.

MED27 (UniProt Q6P2C8): the log2 fold change is inactive: 0.068 in test [1]; inactive: -0.093 in the test with vorinostat; inactive: -0.005 with silmitasertib; inactive: -0.044 in test [2]; inactive: 0 in the test with entospletinib.

On to METTL14 (UniProt Q9HCE5), for which the log2 fold change was inactive: -0.029 in test [1]; inactive: 0.018 in the test with vorinostat; inactive: -0.038 with silmitasertib; inactive: 0.006 in test [2]; inactive: -0.013 in the test with entospletinib.

These data come from the supplement of paper PMC10849652.
